Measured values taken from publication PMC6250434.
These are yes or no findings as the source states them, for the method shown. In cells and extracts the contact can be indirect. Sequences can lack the tags named with a protein.

Protein sequences, listed by entry. Tags and fused reporters are not part of them.
UniProt O14980: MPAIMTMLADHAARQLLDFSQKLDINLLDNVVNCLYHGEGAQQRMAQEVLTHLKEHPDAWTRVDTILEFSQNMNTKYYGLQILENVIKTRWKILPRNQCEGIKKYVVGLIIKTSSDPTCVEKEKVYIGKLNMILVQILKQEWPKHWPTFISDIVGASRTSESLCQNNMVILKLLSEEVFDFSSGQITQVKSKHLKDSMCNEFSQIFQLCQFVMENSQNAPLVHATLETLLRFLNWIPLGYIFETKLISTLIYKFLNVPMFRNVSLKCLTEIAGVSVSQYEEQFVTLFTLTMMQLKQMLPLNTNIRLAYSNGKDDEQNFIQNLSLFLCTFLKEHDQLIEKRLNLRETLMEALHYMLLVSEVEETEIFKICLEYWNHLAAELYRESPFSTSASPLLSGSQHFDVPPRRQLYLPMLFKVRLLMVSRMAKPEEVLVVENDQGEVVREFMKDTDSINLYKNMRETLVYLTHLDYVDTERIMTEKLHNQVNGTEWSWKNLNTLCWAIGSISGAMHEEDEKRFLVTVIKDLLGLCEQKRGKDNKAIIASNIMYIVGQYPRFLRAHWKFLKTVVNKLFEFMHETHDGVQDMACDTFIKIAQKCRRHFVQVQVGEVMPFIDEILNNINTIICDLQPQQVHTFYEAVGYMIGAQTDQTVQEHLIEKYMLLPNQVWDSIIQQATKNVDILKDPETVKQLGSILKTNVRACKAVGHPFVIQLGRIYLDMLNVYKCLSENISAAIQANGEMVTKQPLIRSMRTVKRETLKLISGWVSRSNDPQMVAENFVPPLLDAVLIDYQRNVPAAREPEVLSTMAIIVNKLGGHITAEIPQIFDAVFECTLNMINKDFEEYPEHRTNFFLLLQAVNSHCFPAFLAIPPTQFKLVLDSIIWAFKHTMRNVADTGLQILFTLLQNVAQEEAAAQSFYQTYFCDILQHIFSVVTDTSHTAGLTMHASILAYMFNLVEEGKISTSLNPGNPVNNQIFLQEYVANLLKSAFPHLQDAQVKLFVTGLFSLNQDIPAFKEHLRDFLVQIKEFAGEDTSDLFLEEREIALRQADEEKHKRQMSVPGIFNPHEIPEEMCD

Molecular target: exportin1 (chromosome region maintenance 1, CRM1) (human (endogenous in U2OS)) (UniProt O14980)
Assay: co-IP; total lysates of U2OS cells transfected with control vector, HA-FIH 1–349 or HA-FIH ΔNES, immunoprecipitated with anti-exportin1 antibody, blotted for HA-FIH; pNAS buffer, 16 h at 4°C

binding: no binding
B1: HA-tagged FIH lacking the predicted NES 128–137 (HA-FIH ΔNES) (enzyme, UniProt Q9NWT6)
chain: MAATAAEAVASGSGEPREEAGALGPAWDESQLRSYSFPTRPIPRLSQSDPRAEELIENEEPVVLTDTNLVYPALKWDLEYLQENIGNGDFSVYSASTHKFLYYDEKKMANFQNFKPRSNREEMKFHERGGEERLYLQQTLNDTVGRKIVMDFLGFNWNWINKQQGKRGWGQLTSNLLLIGMEGNVTPAHYDEQQNFFAQIKGYKRCILFPPDQFECLYPYPVHHPCDRQSQVDFDNPDYERFPNFQNVVGYETVVGPGDVLYIPMYWWHHIESLLNGGITITVNFWYKGAPTPKRIEYPLKAHQKVAIMRNIEKMLGEALGNPQEVGPLLNTMIKGRYN
